For 54 molecules, AC50 results are on record in PubChem BioAssay AID1487 (National Center for Advancing Translational Sciences (NCATS), 2009).

Some of the results follow. The main result of the screen is listed elsewhere. These columns were measured beside it and carry no call. Compounds called inactive in the main read-out are mostly missing here. The note in brackets gives the kind of curve behind each potency; many fits are weak.

The experiment in a line: qHTS Assay for Modulators of Lamin A Splicing. To be noted: HeLa LMNA splicing GFP/RFP minigene ratio, 48 h. The text has this:
NCGC Assay Overview: Hutchinson-Gilford Progeria Syndrome (HGPS) is a pediatric premature aging disease caused by a spontaneous mutation in the lamin A/C (LMNA) gene. The mutation activates a cryptic splice site in the LMNA pre-mRNA which results in production of a pre-lamin A protein that cannot be processed properly. The mutant protein accumulates in the nucleus and negatively affects numerous cellular functions. Correction of the splicing defect in HGPS patient cells using a targeted oligonucleotide (exo11) leads to reversal of the cellular disease phenotypes. To identify small molecule modulators of aberrant LMNA splicing, a homogenous assay was constructed in HeLa cells that used a GFP containing minigene to report on correction of aberrant splicing in lamin A and a RFP (DsRed2) to report on cell viability, uniformity and nonspecific effects on the assay signal. This assay was adapted to laser-scanning microplate cytometry (Acumen, TTP Labtech) where miniaturization of the assay to a 1,536-well plate format was possible. References: Bowen, W. P.; Wylie, P. G. Application of Laser-Scanning Fluorescence Microplate Cytometry in High Content Screening. Assay Drug Dev Technol 2006;4:209-221. Scaffidi P, Misteli T. Reversal of the cellular phenotype in the premature aging disease Hutchinson-Gilford progeria syndrome. Nat.
NCGC Assay Protocol Summary: Reagents/Controls: Stable clones expressing DsRed2 and lamin A-EGFP were generated by Cell and Molecular Technologies in S3 HeLa cells. HeLa cells were prepared for the assay when they were 70-90% confluent. The cells were counted and resuspended in Opti-MEM I (no phenol red; Gibco), 2% FBS, 1% penicillin/ streptomycin (Gibco) at concentration of 120 cells/uL concentration. The suspension was passed through a Falcon basket filter with pore size 40um (Beckton Dickson). Control titrations: column […] 1536-well plate contained a sixteen point titration (1:2 dilutions) in duplicate of ancitabine (Sigma: A8598) beginning at 40 uM final concentration. Column 2 contained a sixteen point titration (1:2 dilutions) of cycloheximide beginning at 1.4 mM final concentration. Column 3 contained ancitabine at 40 uM and column 4 contained was the vehicle control (0.5% DMSO final concentration). Assay Steps: 5 uL of HeLa cells were plated in Aurora LoBase black clear bottom (cyclic-olefin polymer) 1536-well plates at a final density of 600 cells/well. Controls and library compounds were added with a 1536-well pin array using the Kalypsys pin-tool. The plates were then incubated for 48 hrs in a cell-culture incubator (37 °C; 5% CO2, 98% humidity). Following incubation the plates were read on the Acumen Explorer using the 488 nm laser. Data was collected on objects between 10 and 100 um in size. Cell objects were defined by a 15 um width x 10 um depth filter. The ratio of the total object intensity in PMT1 (500-530 nm emission; GFP) over PMT3 (575-640 nm emission; RFP) was calculated for analysis. Keywords: NIH Roadmap, MLSCN, MLI, MLSMR, qHTS, NCGC, lamin A, Progeria, RNA splicing.

Setting [1] is: measured here: GFP splicing reporter channel.
Setting [2] is: measured here: RFP viability control channel.

As for `COc1cccc(/C=C(/C(=O)OCC(=O)NC2CCCC(C)C2C)c2ccccc2)c1` (stereo not drawn), the half-maximal activity concentration (AC50) was 8.91 µM [rising, partial curve] under setting [1] and 12.6 µM [rising, partial curve] under setting [2].

Take `CCCCOc1ccc(C(=O)OCC(=O)Nc2cc(C)c(C)cc2[N+](=O)[O-])cc1`: the AC50 runs as follows: under setting [1], 7.08 µM [falling, full curve, poor fit]; under setting [2], 7.94 µM [falling, partial curve, poor fit].

Consider `Cc1c(NC(=O)c2cccnc2)c(=O)n(-c2ccccc2)n1C`, for which the concentration at half-maximal activity (AC50) under setting [1] is 0.00355 µM [falling, full curve] and the AC50 under setting [2] is 0.00501 µM [falling, full curve]. `Cc1cc2nnc(SCC(=O)N3CCCCC3)n2c(N)n1`: under setting [2], the half-maximal activity concentration (AC50) is 3.98 µM [falling, partial curve, poor fit]. On to `CCc1ccccc1N=C1S/C(=C/c2ccccc2OCC(=O)N2CCOCC2)C(=O)N1C`, for which the AC50 under setting [2] is 31.6 µM [rising, single point]. As to `Cc1ccc(S(=O)(=O)Nc2ccc3nc(N)sc3c2)cc1`, the AC50 is, setting by setting: under setting [1], 12.6 µM [rising, single point]; under setting [2], 15.8 µM [rising, partial curve]. As to `CC(=O)Oc1cc2c(C(=O)NCCN3CCOCC3)c(C)oc2c2ccccc12`, the AC50 is 15.8 µM [rising, single point] under setting [1] and 20 µM [rising, single point] under setting [2]. In the case of `CC/S(=N\S(=O)(=O)c1ccc(C)cc1)c1ccccc1` (stereo not drawn), the AC50 by setting is: under setting [1], 0.631 µM [falling, full curve, poor fit]; under setting [2], 0.562 µM [falling, full curve]. In the case of `CCN(c1ccc2c(c1)OCO2)S(=O)(=O)c1cc(Br)cc2c1N(C(=O)C1CC1)CC2`, the concentration at half-maximal activity (AC50) under setting [2] is 14.1 µM [rising, single point]. Consider `Cc1nc(Nc2ccc(Cl)cc2Cl)sc1C(=O)Nc1ccccc1`, for which the AC50 under setting [1] is 20 µM [rising, partial curve, poor fit] and the half-maximal activity concentration (AC50) under setting [2] was 17.8 µM [rising, partial curve]. Regarding `CNC(=O)C1C(=S)NC(N)=C(C#N)C1c1ccccc1` (stereo not drawn), the AC50 by setting is: under setting [1], 35.5 µM [falling, single point]; under setting [2], 22.4 µM [falling, single point]. Consider `CCOC(=O)c1cnc(SCC(=O)N2CCOCC2)nc1N`, for which, under setting [2], the half-maximal activity concentration (AC50) was 22.4 µM [falling, single point]. With `COc1ccc(-n2c(O)c(/C=N/NS(=O)(=O)c3ccc(C)c([N+](=O)[O-])c3)c3ccccc3c2=O)cc1OC`, the half-maximal activity concentration (AC50) by setting is: under setting [1], 15.8 µM [rising, partial curve]; under setting [2], 12.6 µM [rising, partial curve]. `COC(CNC(=O)c1cc(C(=O)c2c(-c3c(Cl)cccc3Cl)noc2C)c[nH]1)OC`: the AC50 reads like this: under setting [1], 35.5 µM [rising, single point]; under setting [2], 35.5 µM [rising, single point]. For the molecule `O=c1c2ccccc2nc2sc3ccccc3n12`, the AC50 under setting [2] was 35.5 µM [rising, single point]. For `O=C(CSc1nnc(-c2cccs2)n1Cc1ccccc1)N1CCc2ccccc2C1`, the half-maximal activity concentration (AC50) is, setting by setting: under setting [1], 35.5 µM [rising, single point]; under setting [2], 35.5 µM [rising, single point]. Turning to `Cc1ccc(Cn2ccc(NC(=O)c3noc4c3CCCCC4)n2)cc1`, the concentration at half-maximal activity (AC50) was 11.2 µM [rising, partial curve] under setting [1] and 28.2 µM [rising, single point] under setting [2]. `COc1cc(CNCCc2ccccc2F)ccc1OCC(=O)N1CCCCC1`: under setting [1], the AC50 is 0.0224 µM [rising, full curve, poor fit]. Consider `CN(c1ccccc1)S(=O)(=O)c1cc(C(=O)OCC(N)=O)ccc1Cl`, for which the concentration at half-maximal activity (AC50) under setting [1] was 4.47 µM [falling, partial curve] and the concentration at half-maximal activity (AC50) under setting [2] was 2.24 µM [falling, single point].

For `CCC1CN(C(=O)N2CCC(C(=O)NCc3cccc(C)c3)CC2)c2ccccc2O1` (stereo not drawn), under setting [1], the AC50 is 11.2 µM [rising, partial curve, poor fit]. Take `O=C(O)CCCCCNS(=O)(=O)c1ccc2c(c1)OCCO2`: the AC50 under setting [1] is 2.24 µM [rising, partial curve, poor fit].

With `CCOc1ccc(S(=O)(=O)NCc2csc(C)n2)cc1`, the AC50 under setting [2] was 31.6 µM [rising, single point].

With `CCNC(=S)N1CCc2cc(OC)c(OC)cc2C1COc1ccc(F)cc1` (stereo not drawn), the half-maximal activity concentration (AC50) under setting [1] was 20 µM [falling, partial curve]. For `O=C(O)[C@@H](S)[C@H](S)C(=O)O`, the AC50 under setting [1] is 8.91 µM [rising, partial curve, poor fit] and the AC50 under setting [2] was 35.5 µM [rising, single point]. For `Cc1sc2nc3c(C(=O)N4CCCC4)cc(C(=O)c4ccccc4O)cn3c(=O)c2c1C`, under setting [1], the AC50 is 17.8 µM [rising, single point]. As to `Cc1nc(N2CCN(Cc3ccccc3)CC2)nc2c1C(=O)CC(c1ccco1)C2` (stereo not drawn), the half-maximal activity concentration (AC50) under setting [2] was 31.6 µM [rising, single point]. As to `COc1ccc(OC)c(NC(=O)/C=C/c2ccccc2[N+](=O)[O-])c1`, the half-maximal activity concentration (AC50) was 0.126 µM [rising, full curve, poor fit] under setting [1] and 5.01 µM [rising, full curve, poor fit] under setting [2].

Take `COc1ccc(NS(=O)(=O)c2cccc(NC(=O)CCS(=O)(=O)c3ccccc3)c2)cc1`: the AC50 reads like this: under setting [1], 12.6 µM [rising, single point]; under setting [2], 25.1 µM [rising, partial curve]. As for `S=C(Nc1ccc2c(c1)OCO2)N1CCCC1`, the half-maximal activity concentration (AC50) was 0.501 µM [rising, full curve, poor fit] under setting [1] and 0.794 µM [rising, full curve, poor fit] under setting [2]. For `CCc1ccc(CNC(=O)c2ccc(NC(=O)N3CCCCc4ccccc43)cc2)cc1`, the AC50 under setting [2] is 0.00447 µM [falling, full curve, poor fit]. `O=C(N/N=C/c1ccccc1O)C1(O)c2ccccc2-c2ccccc21`: the AC50 under setting [2] is 11.2 µM [rising, partial curve, poor fit]. `COc1cc(Cl)cc(/C=C/c2ccc3ccccc3n2)c1OC(C)=O`: under setting [1], the half-maximal activity concentration (AC50) was 35.5 µM [falling, single point]. For `CCc1ccc(-c2nn(CC(=O)Nc3ccccc3)c3c2cnc2ccc(F)cc23)cc1`, the AC50 under setting [1] is 0.251 µM [falling, full curve, poor fit] and the AC50 under setting [2] is 5.01 µM [falling, full curve, poor fit]. For the molecule `CC(=O)NCc1c(I)c(NC(C)=O)c(I)c(C(=O)O)c1I`, the AC50 by setting is: under setting [1], 10 µM [falling, partial curve, poor fit]; under setting [2], 0.0316 µM [falling, full curve, poor fit]. `COc1ccc(-n2c(N)c(C(=O)NCc3ccco3)c3nc4ccccc4nc32)cc1OC`: the AC50 under setting [2] is 11.2 µM [rising, partial curve, poor fit]. As to `CNC(=O)c1ccccc1NC(=O)c1cccc(S(=O)(=O)N2CCC(C)CC2)c1`, the AC50 under setting [2] was 14.1 µM [rising, single point]. The same measure, in the same setting: next, `CCO/N=C(/C)c1c(O)cc(C(C)(C)C)n(-c2ccccc2)c1=O`: 5.62 µM [rising, partial curve]. Take `O=C(Cn1c(=O)c2cccn2c2ccccc21)Nc1cc(F)ccc1F`: the AC50 is, setting by setting: under setting [1], 0.0282 µM [rising, full curve, poor fit]; under setting [2], 5.01 µM [rising, partial curve]. Turning to `Cc1cccc(NC(=O)CSc2ncnc3nc[nH]c23)c1C`, under setting [1], the AC50 is 0.02 µM [rising, full curve, poor fit]. As for `COC(=O)C1=C(C)NC(=S)NC1c1ccc(-c2cccc(Cl)c2)o1` (stereo not drawn), the AC50 under setting [2] was 5.01 µM [rising, partial curve, poor fit]. Consider `COc1ccc(S(=O)(=O)NCC2CCC(C(=O)NCCC(C)C)CC2)cc1` (stereo not drawn), for which the concentration at half-maximal activity (AC50) under setting [1] was 35.5 µM [rising, single point]. With `Cn1c(C(=O)NCc2cccnc2)cc2sc(Cl)cc21`, the AC50 under setting [1] is 20 µM [rising, single point] and the AC50 under setting [2] was 35.5 µM [rising, single point]. With `COc1cccc(/C=N/NC(=O)c2cc(-c3cccn3C)n[nH]2)c1O`, the AC50 under setting [2] is 7.08 µM [rising, partial curve]. Regarding `CCOC(=O)c1sc2ccc(S(=O)(=O)N3CCCCC3)cc2c1N`, the AC50 under setting [1] was 11.2 µM [rising, single point].

In the case of `Cc1ccc2ncnc(Nc3ccccc3)c2c1`, the AC50 under setting [1] is 1.26 µM [falling, full curve, poor fit].

On to `CC1(C)CC2CC(C)(CN2c2ncnc3ccccc23)C1` (stereo not drawn), for which the half-maximal activity concentration (AC50) was 15.8 µM [rising, partial curve] under setting [1] and 11.2 µM [rising, partial curve] under setting [2]. For the molecule `Cc1ccc(S(=O)(=O)CCC(=O)OCc2ccccc2)cc1`, the AC50 under setting [2] was 0.0224 µM [rising, full curve, poor fit].

Take `CCOc1ccc(NC(=O)c2ccc(F)c(S(=O)(=O)N(CC)Cc3ccccc3)c2)cc1`: the half-maximal activity concentration (AC50) under setting [1] was 1 µM [falling, partial curve]. Turning to `O=C(C1CCC1)N1CCc2cc(S(=O)(=O)N3CCN(c4ccccn4)CC3)ccc21`, the AC50 under setting [2] is 12.6 µM [rising, partial curve]. In the case of `C1CCN(CCCNC2C3CC4CC(C3)CC2C4)C1` (stereo not drawn), the concentration at half-maximal activity (AC50) was 3.55 µM [rising, single point] under setting [1] and 2.82 µM [rising, full curve, poor fit] under setting [2]. Take `CCOc1ccc(CCNC(=O)c2sc3ncccc3c2-n2cccc2)cc1OCC`: the AC50 under setting [1] was 7.94 µM [falling, partial curve].

Take `O=C(CSc1nnc(CCc2ccccc2)n1-c1ccc(Cl)cc1)c1ccccc1`: under setting [2], the AC50 was 28.2 µM [rising, single point]. As to `COc1cc(CCC(=O)Nc2ccc(Br)c(C(F)(F)F)c2)cc(OC)c1OC`, the AC50 under setting [2] was 35.5 µM [rising, single point]. `O=C(OOC(=O)c1ccccc1)c1ccccc1`: the half-maximal activity concentration (AC50) is, setting by setting: under setting [1], 0.02 µM [falling, full curve, poor fit]; under setting [2], 0.00631 µM [falling, full curve, poor fit].

The AC50 is the midpoint of the concentration-response curve, whichever way the signal moves.
